{"source": "PubChem BioAssay AID2685", "about": "(National Center for Advancing Translational Sciences (NCATS), 2010)", "note": "The campaign covered roughly 320,000 compounds. About 2,100 (0.66%) were called active. The shares of active, inactive and inconclusive entries below differ from those in the screen. Calls follow the shape of the dose curve; as a rule, active = well fitted inhibition curve with a large enough effect in the signal ratio, with a control signal flat (not every such curve was filed as active); inconclusive = small, poorly fitted or top-dose-only effect, or effect the other way, or a change in a side signal; inactive = flat fitted curve, though single readings scatter; the % refers to the signal ratio. A potency beside an inconclusive call is a rough fit, not a confirmed value. % is scaled to controls: 0 for no effect and ±100 for the full control effect; potency is read from the fitted curve at half-maximal effect."}
{"test": "qHTS Assay for Lipid Storage Modulators in Drosophila S3 Cells", "details": "BODIPY lipid droplet fluorescence, 18-24 h, cells fed with added oleic acid; lipid storage change, negative = inhibition: at 46.1 µM (top of the series) unless noted", "outline": "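Drosophila S3 cells got compounds at several concentrations plus oleic acid (400 uM solution). Laser-scanning cytometry with 488 nm excitation read lipid droplets at 500-530 nm and cells at 575-640 nm. Percent activity was relative to 20 uM Triacsin C.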"}
{"smiles": "COc1ccc(/C=C/C(=O)NC(=S)N2CCN(C)CC2)cc1", "lipid storage change, negative = inhibition": "inconclusive: 15.5%"}
{"smiles": "O=C(O)C1CCN(c2ccc([N+](=O)[O-])cc2[N+](=O)[O-])CC1", "lipid storage change, negative = inhibition": "inconclusive: -15.9%"}
{"smiles": "CC1(C)Oc2ccc3ccc(=O)oc3c2/C(=C/NNC(N)=S)C1=O", "lipid storage change, negative = inhibition": "inconclusive: 477%"}
{"smiles": "CCN(CC(=O)NCc1cccs1)C(=O)c1ccccc1F", "lipid storage change, negative = inhibition": "inconclusive: -17.8%"}
{"smiles": "Cc1nc2sc3c(c2c(=O)o1)CCCC3", "Potency": "active: 29.1 µM"}
{"smiles": "CCCn1c(-c2cc(OC)c(OC)c(OC)c2)nc2nc3ccccc3nc21", "lipid storage change, negative = inhibition": "inconclusive: -58.6%"}
{"smiles": "Cc1ccc(NC(=S)NC2CCN(Cc3ccccc3)CC2)cc1", "lipid storage change, negative = inhibition": "inconclusive: 79.8%"}
{"smiles": "COc1ccccc1N(C)S(=O)(=O)c1ccc(Cl)c(C(=O)NCCCN2CCOCC2)c1", "Potency": "inconclusive: 17.8 µM [falling, single point]"}
{"smiles": "CC(=O)Nc1ccc(S(=O)(=O)Oc2cccc(N3C(=O)C4CC=CCC4C3=O)c2)cc1", "note": "(configuration not stated)", "lipid storage change, negative = inhibition": "inconclusive: 227%"}
{"smiles": "CC(C)CCn1c(=O)c(C(=O)N/N=C/c2cccc(F)c2)c(O)c2ccccc21", "lipid storage change, negative = inhibition": "inconclusive: -4.75%"}
{"smiles": "Cc1ncc[nH]1", "lipid storage change, negative = inhibition": "inconclusive: 9.46%"}
{"smiles": "Cc1oc(-c2ccc(Cl)cc2)nc1CS(=O)CC(=O)NC1CCCCCC1", "note": "(configuration not stated)", "lipid storage change, negative = inhibition": "inconclusive: 24.1%"}
{"smiles": "CCOc1ccccc1NC(=O)c1nnn(CC(=O)Nc2ccc3c(c2)OCO3)c1N", "lipid storage change, negative = inhibition": "inconclusive: 42.4%"}
{"smiles": "Cc1ccc(NC(=O)COc2cccc(C)c2C)cc1S(=O)(=O)N1CCCCCC1", "Potency": "inconclusive: 1.84 µM [activator, partial curve]"}
{"smiles": "CCOC(=O)c1c(-c2ccc(OC)cc2)csc1/N=C/C1=C(O)CCCC1=O", "Potency": "inconclusive: 25.9 µM [falling, single point]"}
{"smiles": "CCOc1ccccc1NC(=O)COC(=O)C(Cc1ccccc1)NC(=O)c1ccco1", "note": "(configuration not stated)", "lipid storage change, negative = inhibition": "inconclusive: 3.28%"}
{"smiles": "Cn1nnc2cc(NC(=O)Nc3cccc(C(F)(F)F)c3)ccc21", "lipid storage change, negative = inhibition": "inconclusive: -5.97%"}
{"smiles": "Cc1ccc(NC(=O)c2ccc(S(=O)(=O)NCc3cccnc3)cc2)cc1C", "lipid storage change, negative = inhibition": "inconclusive: -71.3%"}
{"smiles": "O=C(COC(=O)Cc1cccc(C(F)(F)F)c1)NCc1ccco1", "Potency": "inconclusive: 6.51 µM [activator, partial curve, poor fit]"}
{"smiles": "Cc1nn(Cc2ccccc2)c(N)c1-c1ccccc1", "lipid storage change, negative = inhibition": "inconclusive: 15.6%"}
{"smiles": "COc1ccc(C(=O)Nc2ccc(Cl)cc2C(=O)N2CCCC(C)C2)cc1OC", "note": "(configuration not stated)", "Potency": "inconclusive: 25.9 µM [activator, single point]"}
{"smiles": "CN=C(Nc1ccc(C(=O)OC)s1)c1ccccc1", "lipid storage change, negative = inhibition": "inactive"}
{"smiles": "CCc1ccccc1N1CC(C(=O)O)CC1=O", "note": "(configuration not stated)", "Potency": "inconclusive: 0.0651 µM [falling, full curve, poor fit]"}
{"smiles": "COC(=O)C1=C(C)N(CCCC(=O)O)C(=O)NC1c1ccc(Br)cc1", "note": "(configuration not stated)", "lipid storage change, negative = inhibition": "inconclusive: 33.1%"}
{"smiles": "CC(C)(C)N1CC(OC(N)=O)C1", "lipid storage change, negative = inhibition": "inconclusive: -16.4%"}
{"smiles": "CC(=O)c1cccc(S(=O)(=O)NCC(C)(C)N2CCOCC2)c1", "lipid storage change, negative = inhibition": "inconclusive: 56.2%"}
{"smiles": "CC(=O)Nc1ccc(NC(=O)/C=C/c2ccccc2)cc1", "lipid storage change, negative = inhibition": "inconclusive: -2.72%"}
{"smiles": "Cc1ccc(C(=O)COC(=O)c2cc(Cl)nc3ccccc23)cc1C", "lipid storage change, negative = inhibition": "inconclusive: 27.4%"}
{"smiles": "CCS(=O)(=O)n1nc(-c2ccc(Cl)cc2)nc1SCc1ccccc1", "Potency": "inconclusive: 29.1 µM [cytotoxic, single point]"}
{"smiles": "O=C1CCCc2oc3c(cc(NS(=O)(=O)c4ccc5c6c(cccc46)C(=O)N5)c4ccccc43)c21", "lipid storage change, negative = inhibition": "inconclusive: 17.4%"}
{"smiles": "COc1cccc(OCC(=O)Nc2ccccc2C(=O)Nc2ccc(C(=O)O)cc2)c1", "lipid storage change, negative = inhibition": "inconclusive: -10.6%"}
{"smiles": "NC(=O)c1cc(S(=O)(=O)NCc2cccc(Br)c2)cs1", "Potency": "inconclusive: 29.1 µM [activator, single point]"}
{"smiles": "O=[N+]([O-])c1cccc(-c2nnc3n2CCCCC3)c1", "lipid storage change, negative = inhibition": "inactive"}
{"smiles": "COc1ccc2nc(/N=C(\\N)NC(=O)Nc3ccccc3)nc(C)c2c1", "Potency": "inconclusive: 29.1 µM [falling, single point]"}
{"smiles": "COc1cc(OC)cc(C(=O)NNC(=O)CNC(=O)c2ccc(Br)o2)c1", "Potency": "inconclusive: 0.517 µM [activator, full curve, poor fit]"}
{"smiles": "Cc1cccc(NC(=O)COc2cccc3c2CCN(Cc2ccccc2)C3=O)c1C", "lipid storage change, negative = inhibition": "inconclusive: 14.7%"}
{"smiles": "CCCCn1c(SCC(=O)N2CCC(C)CC2)nc2cc(S(N)(=O)=O)ccc21", "lipid storage change, negative = inhibition": "inconclusive: -91.8%"}
{"smiles": "NC(=O)CSc1nnc(-c2cnccn2)n1-c1ccccc1", "Potency": "inconclusive: 1.84 µM [falling, partial curve]"}
{"smiles": "O=C(O)/C=C/C(=O)Nc1ccc(F)cc1F", "Potency": "inconclusive: 32.6 µM [falling, single point]"}
{"smiles": "CCN(CC)c1ccc(/C=N/N(c2ccccc2)c2ccccc2)c(O)c1", "Potency": "inconclusive: 18.4 µM [cytotoxic, partial curve]"}
{"smiles": "COCCNC(=O)C(c1ccc(C)o1)N(Cc1ccc(OC)cc1)C(=O)Cn1nnc2ccccc21", "note": "(configuration not stated)", "Potency": "inconclusive: 9.2 µM [rising, partial curve, poor fit]"}
{"smiles": "CC1CN(C(=O)Cn2c(C(F)(F)F)nc3ccccc32)CC(C)O1", "note": "(configuration not stated)", "lipid storage change, negative = inhibition": "inconclusive: -7.72%"}
{"smiles": "COc1ccc(OCC(=O)N2CCC3(CC2)CC(=O)c2ccccc2O3)cc1", "lipid storage change, negative = inhibition": "inconclusive: -11.8%"}
{"smiles": "O=C(NCc1ccccn1)Nc1cccc(F)c1", "lipid storage change, negative = inhibition": "inconclusive: -24.8%"}
{"smiles": "COc1ccc(CNC(=O)/C=C/c2ccc(OCCCF)cc2)cc1", "lipid storage change, negative = inhibition": "inconclusive: -57.1%"}
{"smiles": "CN(c1ccc(OCC(=O)OCC(=O)Nc2ccc(Br)cc2)cc1)S(=O)(=O)c1cccs1", "lipid storage change, negative = inhibition": "inconclusive: 1.07%"}
{"smiles": "O=C(NCCN1CCOCC1)c1cc(-c2cccc(O)c2)on1", "Potency": "inconclusive: 1.16 µM [activator, single point]"}
{"smiles": "COc1ccc(S(=O)CC(=O)Nc2ccc(Cl)cc2Cl)cc1", "note": "(configuration not stated)", "Potency": "inconclusive: 6.51 µM [falling, single point]"}
{"smiles": "CCc1ccc(NC(=O)CSc2n[nH]c(=O)n2C2CC2)cc1", "lipid storage change, negative = inhibition": "inconclusive"}
{"smiles": "CCOc1ccccc1NC(=O)CCS(=O)(=O)c1ccc2c(c1)CCN2C(C)=O", "lipid storage change, negative = inhibition": "inconclusive: -11.3%"}
{"smiles": "O=C(O)CC1C(=O)NCCN1CCCc1ccccc1", "note": "(configuration not stated)", "lipid storage change, negative = inhibition": "inactive"}
{"smiles": "Cc1ccc(NC(=O)CN(C)C(=O)CNC(=O)c2ccc3c(c2)OCO3)cc1", "lipid storage change, negative = inhibition": "inconclusive: 39.4%"}
{"smiles": "O=[N+]([O-])c1ccc(N2CCCCCC2)c([N+](=O)[O-])c1", "lipid storage change, negative = inhibition": "inconclusive: -22.3%"}
{"smiles": "CC1(C)Cc2cccc(OCC(=O)NCc3cccs3)c2O1", "Potency": "inconclusive: 29.1 µM [falling, single point]"}
{"smiles": "COc1ccc(C(=O)NCc2nnc(SCC(=O)Nc3cc(C)cc(C)c3)o2)cc1OC", "Potency": "inconclusive: 29.1 µM [rising, single point]"}
{"smiles": "COc1ccccc1NC(=O)C(C)OC(=O)Cc1ccsc1", "note": "(configuration not stated)", "Potency": "inconclusive: 6.51 µM [falling, single point]"}
{"smiles": "COc1ccc(Nc2nc(-c3ccccc3)nc3ccccc23)cc1S(=O)(=O)N1CCOCC1", "Potency": "inconclusive: 0.184 µM [falling, full curve, poor fit]"}
{"smiles": "CCOC(=O)c1nc2sc(C)c(C)c2c(=O)[nH]1", "lipid storage change, negative = inhibition": "inactive"}
{"smiles": "c1ccc(-c2noc(-c3cccc4ccccc34)n2)nc1", "lipid storage change, negative = inhibition": "inconclusive: 26.5%"}
{"smiles": "CCOc1ccccc1NC(=O)Nc1ccc(Br)cc1C", "lipid storage change, negative = inhibition": "inconclusive: 14.9%"}
{"smiles": "Cc1cccn2c(=O)c3cc(C(=O)NC4CCCC4)c(=N)n(Cc4ccc(F)cc4)c3nc12", "lipid storage change, negative = inhibition": "inconclusive: 5.45%"}
{"smiles": "CC(C)(C)OC(=O)NCCCC[C@H](NC(=O)c1nc[nH]c1C(=O)NCC(=O)OCc1ccccc1)C(=O)OC(C)(C)C", "lipid storage change, negative = inhibition": "inconclusive: -25.2%"}
{"smiles": "Cc1ccc(OC(C)C(=O)Nc2ccncc2)cc1C", "note": "(configuration not stated)", "lipid storage change, negative = inhibition": "inconclusive: 3.43%"}
{"smiles": "Cc1ccc(NC(=O)Cn2nc(-c3ccco3)ccc2=O)cc1Cl", "Potency": "inconclusive: 29.1 µM [falling, partial curve, poor fit]"}
{"smiles": "O=C(CSc1nnc(CNC(=O)c2cccs2)o1)Nc1ccccc1", "lipid storage change, negative = inhibition": "inconclusive: -31%"}
{"smiles": "CSc1ccc(S(=O)(=O)NCC(=O)OCC(=O)NC2(C#N)CCCCC2)cc1[N+](=O)[O-]", "lipid storage change, negative = inhibition": "inconclusive"}
{"smiles": "O=[N+]([O-])c1ccccc1CNc1ccc(F)c(Cl)c1", "Potency": "inconclusive: 0.82 µM [falling, full curve, poor fit]"}
{"smiles": "CCCn1c(C2CCCN2c2nc(-c3ccc(C)cc3)cs2)nc2cc(Cl)c(N3CCCCC3)cc21", "note": "(configuration not stated)", "Potency": "inconclusive: 9.2 µM [activator, partial curve]"}
{"smiles": "COC(=O)N/N=C/c1cn(Cc2ccc(F)cc2)c2ccccc12", "lipid storage change, negative = inhibition": "inconclusive: 23.7%"}
{"smiles": "CC(C)OCc1c(C(=O)OC/C(O)=C(\\C#N)c2nc3ccccc3[nH]2)oc2ccccc12", "lipid storage change, negative = inhibition": "inconclusive: -26.5%"}
{"smiles": "CCCSc1nc2c(c(=O)n1CC)SC(C)C2", "note": "(configuration not stated)", "lipid storage change, negative = inhibition": "inconclusive: 7.93%"}
{"smiles": "CCOCCCNS(=O)(=O)c1ccc(NC(=O)c2ccc([N+](=O)[O-])cc2Cl)cc1", "lipid storage change, negative = inhibition": "inconclusive: 0.22%"}
{"smiles": "CCSC1=N/C(=C\\C=C2/Oc3ccccc3N2CC)C(=O)S1", "Potency": "inconclusive: 29.1 µM [falling, single point]"}
{"smiles": "Cc1nnc(SCC(=O)N(C)C2CCS(=O)(=O)C2)n1Cc1ccccc1", "note": "(configuration not stated)", "lipid storage change, negative = inhibition": "inconclusive: -0.349% [at 9.22 µM]"}
{"smiles": "CC(=O)Nc1ccc(NC(=O)C(C)OC(=O)CSCc2cccc(Cl)c2)cc1", "note": "(configuration not stated)", "Potency": "inconclusive: 6.51 µM [activator, partial curve]"}
{"smiles": "C=C(C)CC(c1ccccc1)N(C(C)=O)c1ccco1", "note": "(configuration not stated)", "lipid storage change, negative = inhibition": "inconclusive: -6.81% [at 9.22 µM]"}
{"smiles": "CCOc1ccc(/C=N/N2C(=O)C(CC(=O)Nc3ccc(F)cc3F)SC2=NC)cc1OC", "note": "(configuration not stated)", "lipid storage change, negative = inhibition": "inconclusive: 17%"}
